Assay results as given in the supplement of paper PMC8426693.
This is one part of the list.

What was measured:
Test in all cases: NMR binding call after quantification (hit when 2 of 3 NMR criteria are met) (binary (1 = binding, 0 = not binding)); higher = binding
Conditions in all cases: RNA concentration 10 µM; fragment concentration 200 µM; 293 K
SARS-CoV-2 5'-UTR RNA = tested on: SARS-CoV-2 5'-UTR RNA
SARS-CoV-2 5_SL1 RNA = tested on: SARS-CoV-2 5_SL1 RNA
SARS-CoV-2 5_SL1234 RNA = tested on: SARS-CoV-2 5_SL1234 RNA
SARS-CoV-2 5_SL2+3 RNA = tested on: SARS-CoV-2 5_SL2+3 RNA
SARS-CoV-2 5_SL4 RNA = tested on: SARS-CoV-2 5_SL4 RNA
SARS-CoV-2 5_SL5 RNA = tested on: SARS-CoV-2 5_SL5 RNA
SARS-CoV-2 5_SL5a RNA = tested on: SARS-CoV-2 5_SL5a RNA
SARS-CoV-2 5_SL5b+c RNA = tested on: SARS-CoV-2 5_SL5b+c RNA
SARS-CoV-2 5_SL5stem RNA = tested on: SARS-CoV-2 5_SL5stem RNA
SARS-CoV-2 5_SL6 RNA = tested on: SARS-CoV-2 5_SL6 RNA

SMILES	NMR binding call (SARS-CoV-2 5'-UTR RNA)	NMR binding call (SARS-CoV-2 5_SL1 RNA)	NMR binding call (SARS-CoV-2 5_SL1234 RNA)	NMR binding call (SARS-CoV-2 5_SL2+3 RNA)	NMR binding call (SARS-CoV-2 5_SL4 RNA)	NMR binding call (SARS-CoV-2 5_SL5 RNA)	NMR binding call (SARS-CoV-2 5_SL5a RNA)	NMR binding call (SARS-CoV-2 5_SL5b+c RNA)	NMR binding call (SARS-CoV-2 5_SL5stem RNA)	NMR binding call (SARS-CoV-2 5_SL6 RNA)
Cc1ncsc1C(=O)N1CCCNCC1.Cl.Cl	0	0	0	0	0	0	0	0	0	0
CCOC(=O)c1ccoc1	0	0	0	0	0	0	0	0	0	0
CC(C)(CO)NC(=O)Nc1ccc(Cl)cc1	0	0	0	0	0	0	0	0	0	0
CN1CCN(c2ncccc2F)CC1=O	0	0	0	0	0	0	0	0	0	0
Cc1ccc(C)c(OC(=O)c2ccncc2)c1	0	0	0	0	0	0	0	0	0	0
Oc1ccccc1-c1nc(-c2ccccc2)no1	0	0	0	0	0	0	0	0	0	0
CC(O)CNC1CCCCC1 (stereo not given)	0	0	0	0	0	0	0	0	0	0
CN(CC(=O)O)C(=O)c1ccc(F)cc1	0	0	0	0	0	0	0	0	0	0
Cc1nn(C)c(C)c1NC(=O)CC#N	0	0	0	0	0	0	0	0	0	0
O=C(CCc1ccccc1)Nc1ccc(O)cc1	0	0	0	0	0	0	0	0	0	0
CCn1cc(CNC(=O)c2cccnc2)cn1	0	0	0	0	0	0	0	0	0	0
CCOc1ccc(NC(=O)c2cnccn2)cc1	0	0	0	0	0	0	0	0	0	0
CCCn1nnnc1NC(=O)c1ccco1	0	0	0	0	0	0	0	0	0	0
CC(=O)NCC1(c2ccccc2)CCOCC1	0	0	0	0	0	0	0	0	0	0
NC(=O)c1ccc(OCc2ccccc2)cc1	0	0	0	0	0	0	0	0	0	0
CCc1nnc(NC(=O)c2cnccn2)s1	0	0	0	0	0	0	0	0	0	0
CN(C)C(=O)N1CCOCC12CCOC2 (stereo not given)	0	0	0	0	0	0	0	0	0	0
CC(Oc1ccccc1F)C(=O)O (stereo not given)	0	0	0	0	0	0	0	0	0	0
COCC(=O)Nc1cccc(NC(C)=O)c1	0	0	0	0	0	0	0	0	0	0
CC(CO)N(C)c1ncccc1F (stereo not given)	0	0	0	0	0	0	0	0	0	0
COC(=O)COc1ccc(C#N)cc1	0	0	0	0	0	0	0	0	0	0
CC(=O)NCC1CNCCO1 (stereo not given)	0	0	0	0	0	0	0	0	0	0
O=C(O)COCc1ccccc1	0	0	0	0	0	0	0	0	0	0
CCOc1cccc(C(=O)Nc2nnn(C)n2)c1	0	0	0	0	0	0	0	0	0	0
CCC(CC)C(=O)Nc1nccs1	0	0	0	0	0	0	0	0	0	0
CCOC(=O)c1ccc(F)cc1F	0	0	0	0	0	0	0	0	0	0

SMILES	NMR binding call (SARS-CoV-2 5'-UTR RNA)	NMR binding call (SARS-CoV-2 5_SL1 RNA)	NMR binding call (SARS-CoV-2 5_SL1234 RNA)	NMR binding call (SARS-CoV-2 5_SL2+3 RNA)	NMR binding call (SARS-CoV-2 5_SL4 RNA)	NMR binding call (SARS-CoV-2 5_SL5 RNA)	NMR binding call (SARS-CoV-2 5_SL5a RNA)	NMR binding call (SARS-CoV-2 5_SL5b+c RNA)	NMR binding call (SARS-CoV-2 5_SL5stem RNA)	NMR binding call (SARS-CoV-2 5_SL6 RNA)
Nc1ccccc1N1CCOCC1	0	0	0	0	0	0	0	0	0	0
CC(=O)Nc1cccnc1C(=O)O	0	0	0	0	0	0	0	0	0	0
CC(N)c1cn(-c2ccccc2)nn1.Cl (stereo not given)	0	0	0	0	0	0	0	0	0	0
Fc1ccccc1CNC1CCOCC1	0	0	0	0	0	0	0	0	0	0
CC1CCCCN1C(=O)c1cnccn1 (stereo not given)	0	0	0	0	0	0	0	0	0	0
CCC(=O)Nc1nc(C)cs1	0	0	0	0	0	0	0	0	0	0
O=C(Nc1ccc(F)cc1)Nc1ccc(F)cc1	0	0	0	0	0	0	0	0	0	0
C1CN(Cc2nc(C3CC3)no2)CCO1	0	0	0	0	0	0	0	0	0	0
CNc1ncccn1	0	0	0	0	0	0	0	0	0	0
Cc1nnc(CN2CCC=C(F)C2)s1	0	0	0	0	0	0	0	0	0	0
c1ccc(Nc2nncs2)cc1	0	0	0	0	0	0	0	0	0	0
CCNC(=O)N1CCN(C(C)=O)CC1	0	0	0	0	0	0	0	0	0	0
COC(=O)C1CC(O)CN1C(=O)c1ccco1 (stereo not given)	0	0	0	0	0	0	0	0	0	0
CC(=O)Nc1nnc(SC(C)C)s1	0	0	0	0	0	0	0	0	0	0
COC(=O)Nc1cc(C)n(-c2ccccc2)n1	0	0	0	0	0	0	0	0	0	0
CC(=O)N1CCN(CCCc2ccccc2)CC1	0	0	0	0	0	0	0	0	0	0
Cc1nsc(N2CCCNCC2)n1	0	0	0	0	0	0	0	0	0	0
Cc1nc(CC(=O)N2CCOCC2)cs1	0	0	0	0	0	0	0	0	0	0
Cc1ccccc1CNc1nnnn1C	0	0	0	0	0	0	0	0	0	0
c1ccc(-c2ccc(-n3cnnn3)cc2)cc1	0	0	0	0	0	0	0	0	0	1
NC(=O)c1ccc(NC(=O)C2CCCC2)cc1	0	0	0	0	0	0	0	0	0	0
O=C(NCc1ccccc1)c1cccc(F)c1	0	0	0	0	0	0	0	0	0	0
CCC(CC)C(=O)Nc1ccccc1O	0	0	0	0	0	0	0	0	0	0
CCNC(=O)c1ccc(NS(C)(=O)=O)cc1	0	0	0	0	0	0	0	0	0	0
CC(Oc1ccc(Cl)cc1)C(N)=O (stereo not given)	0	0	0	0	0	0	0	0	0	0
CN(C)C(=O)N1CCN(C(=O)N(C)C)CC1	0	0	0	0	0	0	0	0	0	0

Single records, from the list above. Order of values: NMR binding call (SARS-CoV-2 5'-UTR RNA) | NMR binding call (SARS-CoV-2 5_SL1 RNA) | NMR binding call (SARS-CoV-2 5_SL1234 RNA) | NMR binding call (SARS-CoV-2 5_SL2+3 RNA) | NMR binding call (SARS-CoV-2 5_SL4 RNA) | NMR binding call (SARS-CoV-2 5_SL5 RNA) | NMR binding call (SARS-CoV-2 5_SL5a RNA) | NMR binding call (SARS-CoV-2 5_SL5b+c RNA) | NMR binding call (SARS-CoV-2 5_SL5stem RNA) | NMR binding call (SARS-CoV-2 5_SL6 RNA)
Cc1nnc(CN2CCC=C(F)C2)s1 is listed with 0 | 0 | 0 | 0 | 0 | 0 | 0 | 0 | 0 | 0
Cc1nc(CC(=O)N2CCOCC2)cs1 is listed with 0 | 0 | 0 | 0 | 0 | 0 | 0 | 0 | 0 | 0
Cc1ccccc1CNc1nnnn1C is listed with 0 | 0 | 0 | 0 | 0 | 0 | 0 | 0 | 0 | 0
